# Results taken from paper PMC7265490.
# The chains behind the UniProt entries cited, without tags or fusion partners. Where a name states a change or a piece, a line headed by the entry shows the natural chain unless it says otherwise.
# UniProt Q5TAX3: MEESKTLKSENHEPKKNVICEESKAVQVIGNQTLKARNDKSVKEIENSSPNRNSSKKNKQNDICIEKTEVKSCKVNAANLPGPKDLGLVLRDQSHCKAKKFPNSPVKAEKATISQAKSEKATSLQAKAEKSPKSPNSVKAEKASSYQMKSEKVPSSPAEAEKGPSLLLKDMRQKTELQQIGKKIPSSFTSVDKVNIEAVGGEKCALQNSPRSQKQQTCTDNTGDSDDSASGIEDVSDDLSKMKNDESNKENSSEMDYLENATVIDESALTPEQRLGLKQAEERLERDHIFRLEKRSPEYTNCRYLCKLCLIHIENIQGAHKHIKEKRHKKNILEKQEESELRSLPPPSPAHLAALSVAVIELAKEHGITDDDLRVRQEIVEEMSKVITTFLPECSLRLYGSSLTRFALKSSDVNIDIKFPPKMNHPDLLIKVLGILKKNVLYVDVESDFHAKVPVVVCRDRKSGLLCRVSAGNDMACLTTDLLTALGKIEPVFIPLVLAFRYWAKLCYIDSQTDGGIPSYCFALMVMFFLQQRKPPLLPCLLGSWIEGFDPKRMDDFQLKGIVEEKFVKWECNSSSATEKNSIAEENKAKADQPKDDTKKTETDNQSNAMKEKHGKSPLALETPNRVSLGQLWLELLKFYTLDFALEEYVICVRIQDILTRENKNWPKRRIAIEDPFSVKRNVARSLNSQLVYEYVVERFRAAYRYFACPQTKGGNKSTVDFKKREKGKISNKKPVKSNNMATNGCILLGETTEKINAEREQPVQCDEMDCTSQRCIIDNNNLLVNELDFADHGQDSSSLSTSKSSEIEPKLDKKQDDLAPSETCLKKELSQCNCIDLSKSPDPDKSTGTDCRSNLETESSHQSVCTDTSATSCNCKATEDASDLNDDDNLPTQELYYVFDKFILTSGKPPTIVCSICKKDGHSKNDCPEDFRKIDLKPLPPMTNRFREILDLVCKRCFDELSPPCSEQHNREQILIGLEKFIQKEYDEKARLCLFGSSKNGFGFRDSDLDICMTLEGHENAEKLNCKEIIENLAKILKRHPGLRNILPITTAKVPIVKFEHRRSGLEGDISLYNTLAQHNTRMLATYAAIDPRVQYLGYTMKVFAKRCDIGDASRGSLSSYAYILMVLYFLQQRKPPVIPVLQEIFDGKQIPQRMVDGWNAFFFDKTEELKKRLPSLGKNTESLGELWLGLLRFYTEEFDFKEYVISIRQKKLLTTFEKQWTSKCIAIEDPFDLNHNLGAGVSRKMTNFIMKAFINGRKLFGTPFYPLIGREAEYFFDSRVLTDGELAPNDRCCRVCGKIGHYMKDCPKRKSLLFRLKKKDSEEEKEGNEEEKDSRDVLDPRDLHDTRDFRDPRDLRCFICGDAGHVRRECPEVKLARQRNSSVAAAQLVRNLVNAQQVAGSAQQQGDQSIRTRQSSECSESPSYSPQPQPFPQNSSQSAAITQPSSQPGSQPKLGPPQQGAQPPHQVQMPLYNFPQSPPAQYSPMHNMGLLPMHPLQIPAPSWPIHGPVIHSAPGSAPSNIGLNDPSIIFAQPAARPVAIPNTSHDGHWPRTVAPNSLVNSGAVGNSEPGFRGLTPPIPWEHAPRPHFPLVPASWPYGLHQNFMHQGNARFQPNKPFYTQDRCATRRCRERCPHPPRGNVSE
# UniProt Q9UKV8: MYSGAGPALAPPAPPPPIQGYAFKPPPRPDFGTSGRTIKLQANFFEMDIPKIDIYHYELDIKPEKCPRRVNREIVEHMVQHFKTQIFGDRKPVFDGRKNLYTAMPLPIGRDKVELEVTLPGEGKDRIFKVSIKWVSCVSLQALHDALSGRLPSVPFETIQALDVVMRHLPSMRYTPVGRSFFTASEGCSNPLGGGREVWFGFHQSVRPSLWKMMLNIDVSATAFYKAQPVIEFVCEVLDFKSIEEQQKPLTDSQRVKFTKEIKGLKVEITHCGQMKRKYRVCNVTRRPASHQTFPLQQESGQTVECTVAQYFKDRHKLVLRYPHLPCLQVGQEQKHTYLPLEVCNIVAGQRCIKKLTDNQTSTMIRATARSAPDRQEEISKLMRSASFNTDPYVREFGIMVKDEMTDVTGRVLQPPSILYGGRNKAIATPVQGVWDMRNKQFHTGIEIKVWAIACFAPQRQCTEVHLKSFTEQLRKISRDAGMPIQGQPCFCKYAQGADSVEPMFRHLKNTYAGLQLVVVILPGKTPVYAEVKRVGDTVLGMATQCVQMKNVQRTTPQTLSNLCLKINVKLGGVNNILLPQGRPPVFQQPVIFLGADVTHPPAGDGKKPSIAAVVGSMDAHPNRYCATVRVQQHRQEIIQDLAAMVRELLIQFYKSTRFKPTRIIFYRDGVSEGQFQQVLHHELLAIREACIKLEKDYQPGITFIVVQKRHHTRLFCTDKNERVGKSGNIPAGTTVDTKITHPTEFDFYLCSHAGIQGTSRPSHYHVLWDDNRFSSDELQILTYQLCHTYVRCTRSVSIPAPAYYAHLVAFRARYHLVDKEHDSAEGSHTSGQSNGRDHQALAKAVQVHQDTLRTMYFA
# These are yes or no findings as the source states them, for the method shown. Binding seen in cells or lysates may run through a third protein. Some entries that bind do so weakly or less than the wild type.
# What was measured:
# [1] = biological target: endogenous TUT4 (ZCCHC11/TENT3A/PAPD3) (human (endogenous in HEK293T)) (UniProt Q5TAX3); test: co-IP; endogenous TUT4 or TUT7 immunoprecipitated from HEK293T cells with anti-ZCCHC11 or anti-ZCCHC6, with or without RNase A/T1; Western blot for AGO1, AGO2, TUT4 and TUT7
# [2] = biological target: T1, endogenous TUT7 (ZCCHC6/TENT3B/PAPD6) (human (endogenous in HEK293T)) (UniProt Q5VYS8); test: as above
# T1 sequence: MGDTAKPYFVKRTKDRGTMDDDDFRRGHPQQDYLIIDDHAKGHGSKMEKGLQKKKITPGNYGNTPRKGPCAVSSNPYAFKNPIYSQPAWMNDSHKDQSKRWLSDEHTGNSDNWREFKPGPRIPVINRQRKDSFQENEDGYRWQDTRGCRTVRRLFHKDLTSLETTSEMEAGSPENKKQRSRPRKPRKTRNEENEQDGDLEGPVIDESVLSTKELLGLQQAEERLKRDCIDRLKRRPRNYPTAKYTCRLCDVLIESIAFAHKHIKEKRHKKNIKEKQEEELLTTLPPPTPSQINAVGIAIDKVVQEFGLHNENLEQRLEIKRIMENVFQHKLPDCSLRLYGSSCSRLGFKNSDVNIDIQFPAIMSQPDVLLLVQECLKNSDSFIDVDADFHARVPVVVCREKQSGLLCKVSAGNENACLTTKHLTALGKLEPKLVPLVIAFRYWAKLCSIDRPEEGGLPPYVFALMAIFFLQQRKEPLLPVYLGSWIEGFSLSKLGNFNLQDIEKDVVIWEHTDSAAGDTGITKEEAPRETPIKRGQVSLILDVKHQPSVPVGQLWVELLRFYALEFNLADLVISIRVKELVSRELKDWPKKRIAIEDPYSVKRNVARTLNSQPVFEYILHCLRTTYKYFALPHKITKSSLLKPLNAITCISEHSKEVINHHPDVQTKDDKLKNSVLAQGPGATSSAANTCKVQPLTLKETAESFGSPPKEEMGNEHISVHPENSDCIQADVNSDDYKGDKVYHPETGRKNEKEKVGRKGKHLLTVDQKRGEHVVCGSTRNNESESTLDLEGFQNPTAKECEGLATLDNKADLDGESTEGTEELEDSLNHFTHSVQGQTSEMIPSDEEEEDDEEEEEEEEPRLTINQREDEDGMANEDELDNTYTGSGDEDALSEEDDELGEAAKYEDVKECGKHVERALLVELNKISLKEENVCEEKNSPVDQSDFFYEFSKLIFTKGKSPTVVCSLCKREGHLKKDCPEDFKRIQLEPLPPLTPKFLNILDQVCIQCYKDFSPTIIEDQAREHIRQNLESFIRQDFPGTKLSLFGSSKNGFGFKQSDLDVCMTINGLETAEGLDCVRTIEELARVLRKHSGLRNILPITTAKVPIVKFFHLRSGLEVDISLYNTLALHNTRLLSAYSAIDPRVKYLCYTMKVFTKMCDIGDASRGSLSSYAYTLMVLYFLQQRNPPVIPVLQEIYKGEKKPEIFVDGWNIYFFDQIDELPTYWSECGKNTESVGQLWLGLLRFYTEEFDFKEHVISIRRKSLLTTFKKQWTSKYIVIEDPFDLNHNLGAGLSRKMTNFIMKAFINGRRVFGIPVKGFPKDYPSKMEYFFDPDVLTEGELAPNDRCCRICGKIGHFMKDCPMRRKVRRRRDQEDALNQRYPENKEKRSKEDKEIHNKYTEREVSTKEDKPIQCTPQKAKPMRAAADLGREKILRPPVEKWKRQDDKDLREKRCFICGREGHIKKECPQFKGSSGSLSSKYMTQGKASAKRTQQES
# [3] = biological target: FLAG-tagged AGO2-WT (wild-type Argonaute 2) (UniProt Q9UKV8); test: co-IP; FLAG-tagged AGO2 constructs or GFP transfected into HEK293T; lysis in modRIPA buffer 48 h after transfection; anti-FLAG M2 magnetic beads, 4 °C overnight; washed five times with TBS; beads with or without RNase A/T1 (20 min, room temperature); Western blot for TUT4, TUT7 and AGO2
# [4] = biological target: FLAG-tagged AGO2-F2L3 (AGO2 PAZ mutant, F294A and L339A) (UniProt Q9UKV8); test: as above
Substance,binding [1],binding [2],binding [3],binding [4]
endogenous AGO2 (from UniProt Q9UKV8 1-859),no binding,binds,–,–
endogenous AGO1 (from UniProt Q9UL18 1-857),no binding,binds,–,–
endogenous TUT4 (ZCCHC11/TENT3A/PAPD3) (from UniProt Q5TAX3 1-1644) (enzyme),–,–,no binding,no binding
